Consider 15 molecules from PubChem BioAssay AID1487 (National Center for Advancing Translational Sciences (NCATS), 2009).

In general, AC50 refers to the midpoint of the concentration-response curve, whichever way the signal moves.

The other results are listed elsewhere or left out. Further columns of the screen follow, without active or inactive calls. Most of these compounds were active or inconclusive in the main read-out, so they are no random draw. Words in brackets tell the shape of the fitted curve; partial curves, single points and poor fits give uncertain potencies.

The test is described as follows: qHTS Assay for Modulators of Lamin A Splicing. The note with it: HeLa LMNA splicing GFP/RFP minigene ratio, 48 h. Put shortly:
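S3 HeLa cells stably expressing lamin A-EGFP splicing minigene plus DsRed2, 600 cells/well, 48 h compound exposure at 37C. Laser-scanning cytometry; analysed as GFP (500-530 nm)/RFP (575-640 nm) total intensity ratio; 0.5% DMSO vehicle.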
For orientation: In qHTS, concentration-response curves come from the screen itself.

[1] abbreviates: measured here: RFP viability control channel.
[2] abbreviates: measured here: GFP splicing reporter channel.

As for `COc1ccc(C)cc1NC(=O)c1sc2nc(-c3ccc(F)cc3)cn2c1C`, the concentration at half-maximal activity (AC50) under setting [1] was 35.5 µM [rising, single point].

Take `CCN(CC)C(=O)c1sc2c(c1C)c(=O)n(Cc1ccccc1)c(=O)n2Cc1cc(C)ccc1C`: the AC50 under setting [2] was 0.158 µM [rising, full curve, poor fit].

Consider `CCOc1cc(S(=O)(=O)NCCc2c(C)[nH]c3ccc(C)cc23)ccc1F`, for which the concentration at half-maximal activity (AC50) under setting [1] was 35.5 µM [falling, partial curve].

Take `O=Nc1onc(-c2ccc([N+](=O)[O-])cc2)c1NO`: the concentration at half-maximal activity (AC50) under setting [1] is 35.5 µM [falling, partial curve, poor fit].

Turning to `C/C(=N\Nc1nc(C)c(C)s1)c1ccc([N+](=O)[O-])cc1`, the AC50 under setting [1] is 15.8 µM [rising, single point].

Consider `Cc1ccc(C(=O)COC(=O)CCC(=O)NC2CCCCC2)cc1[N+](=O)[O-]`, for which the AC50 runs as follows: under setting [2], 0.708 µM [rising, full curve, poor fit]; under setting [1], 10 µM [rising, partial curve, poor fit].

`COc1ccc(CNC(=O)c2sc3nc4c(c(C(F)(F)F)c3c2N)CCC4)cc1`: the AC50 runs as follows: under setting [2], 10 µM [rising, partial curve, poor fit]; under setting [1], 12.6 µM [rising, partial curve].

As to `N#CC1=C(N)C(C#N)(C#N)[C@H](c2c(F)cccc2F)[C@H]2CC3(CC=C12)OCCO3`, the half-maximal activity concentration (AC50) under setting [1] was 31.6 µM [rising, single point].

As for `Cc1cccc(N2C(=O)C(O)=C(C(=O)c3cccs3)C2c2ccc(F)cc2)n1` (centres undefined), the AC50 is 0.01 µM [falling, partial curve, poor fit] under setting [2] and 0.00501 µM [falling, full curve, poor fit] under setting [1].

With `O=C(NCCN1C(=O)S/C(=C\c2cccnc2)C1=O)C1CC(=O)N(Cc2ccco2)C1` (centres undefined), the AC50 under setting [1] is 8.91 µM [rising, partial curve].

Turning to `COC(=O)c1ccc(NC(=S)NCCc2ccccc2)cc1`, the AC50 under setting [1] was 2.82 µM [falling, partial curve].

Consider `Cc1c(C(Nc2ccccn2)c2ccc(Cl)cc2)c(=O)n(-c2ccccc2)n1C` (centres undefined), for which the AC50 under setting [2] was 8.91 µM [rising, partial curve].

Turning to `COc1ccc2c(c1OC)C(=O)N1c3ccccc3C(=O)N(c3ccc(F)cc3)C21` (centres undefined), under setting [1], the concentration at half-maximal activity (AC50) is 5.62 µM [rising, partial curve, poor fit].

As to `OCCC1CN(Cc2ccc(C(F)(F)F)cc2)CCN1Cc1ccccc1` (centres undefined), the half-maximal activity concentration (AC50) under setting [1] was 35.5 µM [falling, single point].

Take `CC(C)C(NC(=O)CSCc1ccc([N+](=O)[O-])cc1)C(C)C`: the concentration at half-maximal activity (AC50) is, setting by setting: under setting [2], 11.2 µM [rising, partial curve]; under setting [1], 15.8 µM [rising, partial curve].
